In the assay the test system is Salmonella enterica serovar Typhimurium SL1344. The assay is described as follows: bacterial growth OD600 after 18 h with compound and polymyxin B; higher = more bacterial growth (less inhibition). Conditions: 50 µM, Mueller-Hinton broth.

The list shows a part of the results. These are raw signals, not scaled to a control.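 Primary screen: polymyxin B was added at a level permeabilizing Salmonella outer membranes while sparing inner membranes. DMSO wells, both with and without polymyxin B, established maximum growth. Plate-to-plate variation meant each plate was ranked on its own, and the lowest-OD600 compounds were selected as hits.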

For the compound `O=C(CN1CCOC1=O)N1CCCC(CCc2ccc(F)c(F)c2)C1` (configuration not stated), the “bacterial growth OD600” value (polymyxin B 0.75 µg/mL) amounted to 0.62.

Turning to `CC(C)n1cc(C(=O)NCC2CCCCC2)c(=O)c(C(=O)N2CCN(C(=O)c3ccco3)CC2)c1`, where the note is “polymyxin B 0.75 µg/mL”, the “bacterial growth OD600” value was 0.865.

Take `O=C1CCC(C(=O)N2CCSCC2)CN1CCCc1ccccc1` (configuration not stated): where the note is “polymyxin B 1 µg/mL”, the “bacterial growth OD600” value is 0.943.

As for `COc1cc(OC)c2nc(-c3cc4c(c(OC)c3)OCCN(C(=O)c3cccc(N5CCNC5=O)c3)C4)cc(C)c2c1`, the “bacterial growth OD600” value (polymyxin B 0.75 µg/mL) is 0.855.

With `CN(CCCCN1CCOCC1)C(=O)c1ccc2nc(Cc3ccccc3F)oc2c1`, where the note is “polymyxin B 1 µg/mL”, the “bacterial growth OD600” value worked out at 0.908.

Consider `O=C(CC1C(=O)NCCN1Cc1cccs1)NCCCc1ccccc1` (configuration not stated), for which the “bacterial growth OD600” value (polymyxin B 0.75 µg/mL) came to 0.993.

For the compound `Cc1cc(CN(C)c2ccc(-c3nc(COc4ccccc4)no3)cn2)on1`, the “bacterial growth OD600” value (polymyxin B 1 µg/mL) turned out to be 0.805.

As for `O=C(Cc1ccc(N2CCC(NCc3scnc3-c3ccccc3)CC2)cc1)NCc1ccccn1`, the “bacterial growth OD600” value (polymyxin B 0.75 µg/mL) came to 1.01.

For `CCN(C)c1nc2nonc2nc1NC1CCCC1`, under “polymyxin B 1 µg/mL”, the “bacterial growth OD600” value was found to be 0.945.

As to `O=C(Nc1ccc(N2CCC(NCC3COc4ccccc4O3)CC2)cc1)C1CCCC1` (configuration not stated), the “bacterial growth OD600” value (polymyxin B 0.75 µg/mL) was determined as 0.482.

For the compound `CC(=O)Nc1cc(C(=O)NCCCn2nnc3ccccc32)c2c(c1)nc(C)n2Cc1ccccc1`, the “bacterial growth OD600” value (polymyxin B 0.75 µg/mL) worked out at 1.02.

With `CC(C)N1CCC(N2CCCC(C(=O)N3CC=C(c4ccccc4)CC3)C2)CC1` (configuration not stated), for the setting “polymyxin B 0.75 µg/mL”, the “bacterial growth OD600” value is 0.815.

As for `O=C(c1ccc(NC2CCCC2)nc1)N1CCCN(c2ncccn2)CC1`, the “bacterial growth OD600” value (polymyxin B 0.75 µg/mL) came to 0.818.

As for `O=C(c1csc2nc(-c3cccc(F)c3)cn12)N1CCCCCC1`, the “bacterial growth OD600” value (polymyxin B 1 µg/mL) came to 0.739.

For the compound `Cc1nonc1CN(C)C(=O)CC(c1ccccc1)c1ccccc1Cl` (configuration not stated), the “bacterial growth OD600” value (polymyxin B 1 µg/mL) is 0.011.

Regarding `O=C(c1cccc(F)c1)N(Cc1ccncc1)Cc1cccc(OCCc2ccc(F)cc2)c1`, under “polymyxin B 0.75 µg/mL”, the “bacterial growth OD600” value is -0.006.

Take `COc1ccc2cc(C(=O)C3CCCN(Cc4csc(C(C)=O)c4)C3)ccc2c1` (configuration not stated): the “bacterial growth OD600” value (polymyxin B 1 µg/mL) was found to be 0.747.

As for `COc1ccc(CCC(=O)N2CCc3c(cnc(C)c3CNC(=O)c3ccc4c(c3)OCO4)C2)cc1`, the “bacterial growth OD600” value (polymyxin B 0.75 µg/mL) is 0.806.

For the compound `COc1cccc(NC(=O)CCC2CCN(Cc3ccc(F)c(OC)c3)CC2)c1`, the “bacterial growth OD600” value (polymyxin B 1 µg/mL) was found to be 0.831.

As for `Cc1nc(CN2CCN(c3nc4nonc4nc3N3CCCCC3)CC2)cs1`, the “bacterial growth OD600” value (polymyxin B 0.75 µg/mL) is 0.699.

Turning to `CC#CCN1C(=O)NC(CCCc2ccccc2)(C2CCN(C(=O)/C=C/c3ccccc3)CC2)C1=O` (configuration not stated), the “bacterial growth OD600” value (polymyxin B 0.75 µg/mL) is -0.003.

Take `CCOC(=O)CNC(=O)N1C[C@H]2OC(=O)N(CCc3ccc(F)cc3)[C@H]2C1`: the “bacterial growth OD600” value (polymyxin B 1 µg/mL) was determined as 0.885.

On to `CC#CC(=O)N1CCCC(Cc2ccc(F)cc2F)(C(=O)OCC)C1` (configuration not stated), for which the “bacterial growth OD600” value (polymyxin B 1 µg/mL) was 0.815.

With `COc1cccc(CCC2CCCN(C(=O)C(C)C)C2)c1` (configuration not stated), the “bacterial growth OD600” value (polymyxin B 0.75 µg/mL) amounted to 0.596.

With `Cc1ncoc1C(=O)N1CCCC(CCc2ccccc2C(F)(F)F)C1` (configuration not stated), where the note is “polymyxin B 0.75 µg/mL”, the “bacterial growth OD600” value turned out to be 0.651.

Regarding `COc1ccc(NC(=O)CCC2CCCN(C(=O)CCc3cccnc3)C2)cc1Cl` (configuration not stated), for the setting “polymyxin B 1 µg/mL”, the “bacterial growth OD600” value worked out at 0.877.

As for `O=C(CCC1(Cc2cccs2)CCC(=O)N1)NCc1cnn(-c2ccccc2)n1` (configuration not stated), under “polymyxin B 0.75 µg/mL”, the “bacterial growth OD600” value stood at 0.81.

Turning to `CN(CCC(O)c1ccccc1)C(=O)c1cc(COc2cccc3cnccc23)on1` (configuration not stated), the “bacterial growth OD600” value (polymyxin B 1 µg/mL) was determined as 0.944.

As to `O=C(c1cc(COc2ccc3c(c2)CCCC3)on1)N1CCN(C2CCCC2)C(=O)C1`, for the setting “polymyxin B 1 µg/mL”, the “bacterial growth OD600” value stood at 0.005.

On to `COc1cccc(CNC(=O)CCC2CCCN(C(=O)Cc3cccc(C)c3)C2)c1` (configuration not stated), for which the “bacterial growth OD600” value (polymyxin B 1 µg/mL) turned out to be 1.2.

Consider `Cn1ccnc1SCCNc1nc2nonc2nc1N1CCSCC1`, for which, where the note is “polymyxin B 0.75 µg/mL”, the “bacterial growth OD600” value worked out at 0.953.

With `Cc1c(C(=O)N2CCCCC2)sc2ncnc(N3CCCCCCC3)c12`, the “bacterial growth OD600” value (polymyxin B 0.75 µg/mL) is 0.003.
